## Library screen at single concentrations

Mtb glucose medium: 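Phenotypic screen: M. tuberculosis growth, glucose 7H9 medium, 3 days; the read-out is not stated. Tested at 50 µM. Higher reads as more growth inhibition (inferred: compounds with an IC50 in retests scored well above the rest). About 69,000 compounds were tested under these conditions; 1.1% (about 760) showed 50% or more at least once.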
Mtb cholesterol medium: 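Growth of Mycobacterium tuberculosis over 4 days (cholesterol / DPPC medium with tyloxapol); the read-out is not stated. Tested at 50 µM. Higher reads as more growth inhibition (inferred: compounds with an IC50 in retests scored well above the rest). Of about 69,000 compounds tested this way, about 370 (0.54%) reached 50% or more in at least one test.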

Values are the deposited “Percent Effect”, in %. The controls that fix the scale are not given in the record; negative values are as filed. Compounds were drawn at random from those tested, without regard to their results. Two or more numbers in one place are separate tests of the same structure; such repeats can differ widely.

Compound | Mtb glucose medium | Mtb cholesterol medium
O=C(NCc1cnn2cccnc12)C1CC(=O)N(Cc2cccnc2)C1 (centres undefined) | -3.674 & 3.036 | 15.47
O=C(NCc1ccc(F)cc1)NCC(O)(c1ccco1)C1CC1 (centres undefined) | 22.89 & 3.661 | -7.19
COc1ccccc1CN(C)C(=O)CN1C(=O)OC[C@@H]1c1ccccc1 | 4.996 & -7.879 | -22.15
N[C@H]1CN(C(=O)Cc2cc(F)cc(Cl)c2)C[C@@H]1C1CC1 | -3.41 & 1.232 | -1.907
COCCn1cnnc1CNc1cc(C)nc2c(C)c(C)nn12 | 7.156 | -6.048
CCCc1nnnn1CC(=O)NCc1cccc(C)c1 | -5.98 | 7.984
Fc1ccccc1C(CNc1ccncn1)N1CCCC1 (centres undefined) | 0.3294 | -9.885
Cc1nn(CC(=O)Nc2ccc(F)cc2)c(N)c1C#N | -18.87 & -0.2625 | -3.717 & -7.594
CN1CCc2cc(C(=O)N(C)C)c(NCC3CC3)nc2CC1.O=C(O)C(F)(F)F.O=C(O)C(F)(F)F | 21.47 | 14.92
CCc1n[nH]c(C2CN(C(=O)c3cc(C(N)=O)cs3)CCO2)n1 (centres undefined) | -0.7511 | -21.1
COCCN1CC(c2nc(CSC)no2)CCC1=O (centres undefined) | -20.17 | 3.012 & -18.55
[H][C@@]12CCCO[C@]1([H])[C@H](N1CCN(C)CC1)CN2C(=O)c1ccsc1 | 0.9482 | -19.9
CN1CCC(O)(CNC(=O)c2cc(COc3cccc(F)c3)[nH]n2)CC1 | 3.622 | 8.301
Cn1c(N2CCOCC2)nc2cc(C(=O)N3CC(O)CO3)ccc21 (centres undefined) | -42.22 | -0.055
CCNc1c(C#N)c(=O)n(C)c(=O)n1C | 6.094 | -22.82
CC(C)NC(=O)CC1(Cn2cnnn2)CCCCC1 | 19.09 | -8.749
COc1ccc(OCCNCc2c(C)nn(C)c2N(C)C)cc1.Cl | -19.36 | -25.69
CC1CCCCN1S(=O)(=O)NCc1cccnc1OC1CCCC1 (centres undefined) | 8.118 | -8.77
Cc1nc2ccc(C(=O)N3CCn4c(nnc4C4CC4)C3)cc2nc1C | 13.59 | -3.225
CCC(C)N(Cc1cccnc1)C(=O)c1ccc(OC)cc1O (centres undefined) | -5.53 & -4.332 | 3.171
Cn1nccc1C(=O)N1CCC(n2cc(-c3ccsc3)nn2)CC1 | -9.456 | 0.1361
CCN1CCCC(O)(c2nc(C)c(CCOc3ccc(F)cc3)s2)CC1 (centres undefined) | -27.38 | 39.21
O=C(NCc1cc[nH]n1)NCC(O)COc1cccc(F)c1 (centres undefined) | -34.69 | -43.39
COC(=O)C(CCSC)NC(=O)Cc1c(C)nn(-c2ccccc2)c1C (centres undefined) | -1.954 | 16.79
O=C(NCCSCc1cccs1)C1CCCN(C(=O)N2CCCC2)C1 (centres undefined) | 5.969 | 8.991
O=C(O)C(F)(F)F.O=C1Nc2ccccc2C12CCN(c1nccs1)CC2 | 13.36 | 1.939
COc1cccc(S(=O)(=O)NC(=O)COC2CCCC2)c1 | 7.008 | 7.105
O=C(O)C(F)(F)F.[H][C@@]12CCN(S(=O)(=O)CC)C[C@]1([H])[C@@H](CN(C)C)OC2 | -14.94 | -36.02
CN(CC(F)(F)F)C(=O)CNC(=O)Cc1ccc(O)cc1Cl | 14.83 | 19.73
O=C(NCCCn1ccnc1)C1CCC(=O)N1Cc1cccs1 (centres undefined) | 27.27 & 1.78 | 23.81
CN1CCN(c2nccc(-c3cncnc3C3CCCCC3)n2)CC1 | 26.4 | 3.348
Cc1cccc(N2CCN(CCCNC(=O)c3nccn3C)CC2)c1 | 26.88 | 17.66 & 5.097
CCNc1ncc(C2CC(=O)Nc3c2cnn3Cc2ccncc2)cn1 (centres undefined) | 14.83 | 5.9
Cc1nc(CN2CCc3ncnc(-c4ccc(F)cc4)c3CC2)cs1.O=C(O)C(F)(F)F | -12.43 | -15.86
CC1CCc2nc(O)c(C(=O)NCCN(C)C)cc2C1 (centres undefined) | 7.548 | 11.54
CCc1noc(CN2CCN(CCO)CC2)n1 | 3.875 | -6.323
Cc1cncc(CN2CC[C@@](O)(CNC(=O)c3c[nH]cn3)[C@H](O)C2)c1 | 10.54 | 11.98 & 7.862
Cc1ccsc1CN(Cc1ncccc1C(=O)O)C1CC1 | -13.84 | -2.879
CC(NCc1ccc(OCC(N)=O)cc1)c1ccc(Cl)c(Cl)c1.Cl (centres undefined) | 56.47 | 34.66
Cc1ncc(-c2ccncc2)c(C2CCN(C(=O)c3ccco3)CC2)n1 | -14.88 | 0.1071 & 1.703
O=C1CSC(c2ccc(O)cc2)c2sccc2N1 (centres undefined) | -29.84 | -23.22 & -10.8
CC(C)c1nc(C2CCCN(C(=O)CN3CCCNC3=O)C2)no1 (centres undefined) | 12.29 & -0.5694 | -16.61
CN(C)Cc1cc(C2CCCCN2S(=O)(=O)c2cccc(Cl)c2)nn1C.Cl (centres undefined) | -19.51 | 0.0628
COCC(C)NC(=O)CN1CCCC1 (centres undefined) | 2.31 | 16.38
Cc1cc(NC2CCCN(Cc3ccc(F)cc3)C2)n2nc(C)cc2n1 (centres undefined) | 45.56 | 13.77
O=C(NCCCn1cccn1)C1CCC(=O)N(Cc2ccccc2F)C1 (centres undefined) | 22.77 | -3.656 & 9.032
CCc1ccc(C(=O)N2CCC3(CCC(=O)N(CCN(C)C)C3)CC2)[nH]1 | -0.8897 | -6.83 & -12.54
COCCO[C@H]1CCN(Cc2cccs2)[C@H]1Cc1cccnc1.O=C(O)C(F)(F)F.O=C(O)C(F)(F)F | 25.16 | 16.25
Cc1cc2cc(Nc3c(C#N)c(=O)n(C)c(=O)n3C)ccc2[nH]1 | -6.463 & -28.45 | -4.399
CC(C)N1CCCn2nc(C(=O)NCCc3ccccn3)cc2C1 | -4.105 & 3.364 | 16.33
O=C(O)C(F)(F)F.O=C(O)C(F)(F)F.[H][C@@]12OCCC[C@]1([H])N(C(=O)c1ccc(C)nc1)C[C@@H]2N1CCOCC1 | -12.69 | -13.51
Cl.O=C(c1ccccc1F)N1CC2(CCNCC2)c2cc(Cl)ccc21 | -9.862 | -0.6106 & -3.296
Cc1nc(Nc2cnccn2)cc(C2CCCN2)n1.Cl (centres undefined) | -53.91 | -24.28 & 15.37
CCCC(=O)N1CCC([C@@H]2C[C@H](C(F)(F)F)n3nc(C)cc3N2)CC1 | -20.03 | -6.835
Cc1ccsc1-c1nccn1CCS(C)(=O)=O | 35.79 | -12.92
Cc1cc(CN2CCC=C(CN(C)C(=O)c3ccco3)C2)no1 | -9.938 | 0.3344
Cc1nc(S(=O)(=O)NCCC(=O)NCc2ccc(C#N)cc2)cn1C | 0.6986 | -16.31
Cc1nnc(NC(=O)NCc2ccnc(N(C)C)c2)s1 | 10.64 | -1.138
[H][C@@]12COC[C@]1(COc1cccnc1)CN(C(=O)c1ncccn1)C2 | 23.13 | 21.68
CC(C)(C)OC(=O)NCC1CCCCN1Cc1cccc(C(N)=O)c1 (centres undefined) | 3.362 & 32.69 | 16.57
CC1CCCN(CCCNC(=O)c2ccc(N(C)S(C)(=O)=O)cc2Cl)C1 (centres undefined) | 13.2 | 11.06
CCCS(=O)(=O)N1CCN(c2cc(-n3cnc(C)c3C)nc(C)n2)CC1 | -37.82 | -28.03
CC(C)Oc1ncnc2c1CCN(Cc1ccc(F)cc1)CC2.O=C(O)C(F)(F)F | 19.84 & 8.241 | -2.163
CS(=O)(=O)NCc1nnc2n1CCN(Cc1cccs1)C2 | -10.74 | -0.04689
Cc1cn2cc(-c3nc4c([nH]3)CCCNC4=O)nc2s1 | 9.341 | -0.2103
CCc1ocnc1C(=O)N1CCC(n2cc(-c3ccsc3)nn2)CC1 | 47.96 | 10.22
CCC[C@@H](NC(N)=O)C(=O)N1CCc2ccccc2CC1 | -20.05 | -11.58
Cc1cn2nc(N3CCCC3Cn3nc(C)nc3C)sc2n1 (centres undefined) | -20.09 | -3.841
CCOCCS(=O)(=O)c1nnc(NCCOC)s1 | -1.983 | -17.45
CCc1cc(N2CCSCC2)n2nc(C)c(C)c2n1 | -29.6 | -26.43
CC(Cn1cccn1)n1cnc2ccc(F)cc2c1=O (centres undefined) | 0.4115 | 9.966
CCN(C(=O)CS(=O)(=O)c1cc(OC)c(OC)cc1C)C1CC1 | -1.267 | -5.266
COc1ccc(Cc2nnc3n2N=C(C(C)(C)C)CS3)cc1 | -26.13 | -39.08
CNS(=O)(=O)c1ccc(CNC(=O)C2CCCO2)cc1 (centres undefined) | -8.709 | -25.58
O=C(O)CCC(=O)Nc1nn(Cc2ccc(F)cc2)cc1Cl | 7.115 | -28.84
Cc1ncc(-c2ccccn2)c(CCNC(=O)C2CCCC2)n1 | -8.462 | -21.35
CCNS(=O)(=O)C1CCN(C(=O)c2ccc(F)cc2)C1 (centres undefined) | 9.307 | 8.957 & -2.486
CN(C)CC1(O)CCCN(Cc2ccccc2OCC(=O)N(C)C)C1 (centres undefined) | -24.6 | -5.131 & -1.963
N#Cc1cccnc1NCCNC(=O)N1CCSCC1 | -45.92 & -12.18 | -22.41
NC(=O)C(NCc1nn(-c2ccccc2)c2c1CCC2)c1ccccc1 (centres undefined) | 21.81 | 1.146
Cc1n[nH]c(C2CN(CC(=O)NCCc3ccccc3C)CCO2)n1 (centres undefined) | -42.83 | -17.58
Cc1cc(C)n(CC2CN(Cc3nc(C)c(C)o3)CCO2)n1 (centres undefined) | -10.49 | -16.06
COc1cccc(C2CN(CCc3ccncc3)CCO2)c1 (centres undefined) | -18.05 | -10.17

Once more, the final 8:

* Cc1ncc(-c2ccccn2)c(CCNC(=O)C2CCCC2)n1 | Mtb glucose medium: -8.462%; Mtb cholesterol medium: -21.35%
* CCNS(=O)(=O)C1CCN(C(=O)c2ccc(F)cc2)C1 (centres undefined) | Mtb glucose medium: 9.307%; Mtb cholesterol medium: 8.957% & -2.486%
* CN(C)CC1(O)CCCN(Cc2ccccc2OCC(=O)N(C)C)C1 (centres undefined) | Mtb glucose medium: -24.6%; Mtb cholesterol medium: -5.131% & -1.963%
* N#Cc1cccnc1NCCNC(=O)N1CCSCC1 | Mtb glucose medium: -45.92% & -12.18%; Mtb cholesterol medium: -22.41%
* NC(=O)C(NCc1nn(-c2ccccc2)c2c1CCC2)c1ccccc1 (centres undefined) | Mtb glucose medium: 21.81%; Mtb cholesterol medium: 1.146%
* Cc1n[nH]c(C2CN(CC(=O)NCCc3ccccc3C)CCO2)n1 (centres undefined) | Mtb glucose medium: -42.83%; Mtb cholesterol medium: -17.58%
* Cc1cc(C)n(CC2CN(Cc3nc(C)c(C)o3)CCO2)n1 (centres undefined) | Mtb glucose medium: -10.49%; Mtb cholesterol medium: -16.06%
* COc1cccc(C2CN(CCc3ccncc3)CCO2)c1 (centres undefined) | Mtb glucose medium: -18.05%; Mtb cholesterol medium: -10.17%

Measurements from “University of Dundee, Small-Polar-MMV Screening Library” (2021), ChEMBL document CHEMBL3988442.